Some values come without a unit; they compare only within their column.
Tested on: DYT1 patient plasma
Test: Whole plasma metabolomics (Biocrates MxP Quant 500 Kit), DYT1 vs Healthy Controls
Settings: for Mean of DYT1-Dystonia: DYT1-Dystonia group; for Mean of Healthy Control: Healthy Control group
[1] = Healthy Control mean minus DYT1-Dystonia mean
[2] = Mean of Healthy Control minus Mean of DYT1-Dystonia
[3] = human whole plasma metabolite level
[4] = DYT1-Dystonia vs Healthy Control

Row | SMILES | Difference [1] | Mean of DYT1-Dystonia (human plasma metabolite level) | Mean of Healthy Control (human plasma metabolite level) | Difference [2] | Mean of DYT1-Dystonia [3] | Mean of Healthy Control [3] | LogFC [4] | Ratio [4]
1 | CN(C)C(N)=NCCC[C@H](N)C(=O)O [ADMA_Aminoacids Related] | 0.009957 | 0.5582 | 0.5681 |  |  |  |  | 
2 | NC(=O)C[C@H](N)C(=O)O [Asn_Aminoacids] |  |  |  | 6.784 | 78.14 | 84.92 |  | 
3 | NC(CCS)C(=O)O (centres unmarked) [HCys_Aminoacids Related] | −0.2953 | 6.024 | 5.729 |  |  |  |  | 
4 | NC(=O)CC[C@H](N)C(=O)O [Gln_Aminoacids] |  |  |  | 32.81 | 890.1 | 922.9 |  | 
5 | C[N+](C)(C)[C@@H](Cc1c[nH]c2ccccc12)C(=O)[O-] [TrpBetaine_Aminoacids Related] |  |  |  | −0.1464 | 0.4805 | 0.3341 |  | 
6 | C[C@H](N)C(=O)O [Ala_Aminoacids] |  |  |  | 63.96 | 523.2 | 587.1 |  | 
7 | NCCCCC(=O)O [5-AVA_Aminoacids Related] |  |  |  | 0.05599 | 0.06457 | 0.1206 | −0.9013 | 0.5354
8 | Nc1ccccc1C(=O)CC(N)C(=O)O (centres unmarked) [Kynurenine_Aminoacids Related] |  |  |  | 0.2116 | 2.278 | 2.489 |  | 
9 | CCC(=O)OC(CC(=O)[O-])C[N+](C)(C)C (centres unmarked) [C3_Acylcarnitines] |  |  |  | 0.05677 | 0.5561 | 0.6129 |  | 
10 | CCCCCCCCCCCCCCCCCC(=O)OC[C@@H](O)COP(=O)([O-])OCC[N+](C)(C)C [lysoPC a C18:0_Glycerophospholipids] | −0.4983 | 43.45 | 42.96 |  |  |  |  | 
11 | C[N+](C)(C)CC(=O)O [Betaine_Aminoacids Related] |  |  |  | 10.83 | 66.16 | 77 |  | 
12 | CCCCCCCCCCCCCCCC(=O)O[C@H]1CC[C@@]2(C)C(=CC[C@H]3[C@@H]4CC[C@H]([C@H](C)CCCC(C)C)[C@@]4(C)CC[C@@H]32)C1 [CE(16:0)_Cholesterol Esters] |  |  |  | 16.58 | 108.6 | 125.2 |  | 
13 | CCCCCCCCCCCCC/C=C/[C@@H](O)[C@H](CO)NC(=O)CCCCCCCCCCCCCCCCCCCCCCCC [Cer(d18:1/25:0)_Ceramides] |  |  |  | 0.07031 | 0.4637 | 0.534 |  | 
14 | CC(O)C(=O)O (centres unmarked) [Lac_Carboxylic Acids] |  |  |  | −162.8 | 1715 | 1552 |  | 
15 | CCCCCCCCCCCC=CC(O)C(CO)NC(=O)CCCCCCCCCCCCCCCCCCCCC (centres unmarked) [Cer(d16:1/22:0)_Ceramides] |  |  |  | 0.09075 | 0.5108 | 0.6015 |  | 
16 | C[C@@H](O)[C@H](N)C(=O)O [Thr_Aminoacids] |  |  |  | 32.25 | 171.3 | 203.6 |  | 
17 | O=C(O)/C=C(\CC(=O)O)C(=O)O [AconAcid_Carboxylic Acids] | 0.1925 | 5.532 | 5.724 |  |  |  |  | 
18 | C[C@H](CCC(=O)NCC(=O)O)[C@H]1CC[C@H]2[C@@H]3[C@H](O)C[C@@H]4C[C@H](O)CC[C@]4(C)[C@H]3CC[C@]12C [GCDCA_Bile Acids] |  |  |  | −0.7857 | 4.677 | 3.892 |  | 
19 | C[C@H](CCC(=O)NCC(=O)O)[C@H]1CC[C@H]2[C@@H]3CC[C@@H]4C[C@H](O)CC[C@]4(C)[C@H]3CC[C@]12C [GLCA_Bile Acids] |  |  |  | 0.01912 | 0.05948 | 0.0786 |  | 
20 | CC(C)C[C@H](N)C(=O)O [Leu_Aminoacids] |  |  |  | 14.93 | 172 | 186.9 |  | 

From patent US20260266848A1, “COMPOSITIONS AND METHODS FOR DIAGNOSING AND TREATING DYSTONIA” (Duke University, priority 2023, published 2026)
